## Results of single-concentration screens

Protein sequences, listed by entry. Tags and fused reporters are not part of them.
UniProt P9WPC5, whole entry: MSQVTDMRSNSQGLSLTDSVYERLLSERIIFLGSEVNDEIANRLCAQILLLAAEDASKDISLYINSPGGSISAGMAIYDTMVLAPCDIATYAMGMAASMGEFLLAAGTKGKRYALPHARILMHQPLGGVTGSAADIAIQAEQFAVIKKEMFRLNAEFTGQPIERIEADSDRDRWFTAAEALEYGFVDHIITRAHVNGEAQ
UniProt P9WPC3, whole entry partner: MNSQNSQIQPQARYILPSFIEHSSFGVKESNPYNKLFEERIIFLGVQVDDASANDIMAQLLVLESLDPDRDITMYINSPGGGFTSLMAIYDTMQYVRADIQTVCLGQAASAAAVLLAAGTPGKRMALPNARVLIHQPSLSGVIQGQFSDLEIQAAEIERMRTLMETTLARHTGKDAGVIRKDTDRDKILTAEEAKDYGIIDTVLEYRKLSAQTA
UniProt P9WFT3, whole entry: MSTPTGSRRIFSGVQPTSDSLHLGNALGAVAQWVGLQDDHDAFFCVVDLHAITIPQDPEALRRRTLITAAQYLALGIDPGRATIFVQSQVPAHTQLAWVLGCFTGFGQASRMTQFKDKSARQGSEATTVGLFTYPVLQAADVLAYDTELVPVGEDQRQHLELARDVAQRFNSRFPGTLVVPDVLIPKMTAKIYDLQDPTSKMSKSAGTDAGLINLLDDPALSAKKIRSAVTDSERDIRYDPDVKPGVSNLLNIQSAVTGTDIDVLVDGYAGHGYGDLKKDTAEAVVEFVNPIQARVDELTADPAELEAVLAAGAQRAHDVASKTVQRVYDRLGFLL
UniProt P9WNZ1, whole entry: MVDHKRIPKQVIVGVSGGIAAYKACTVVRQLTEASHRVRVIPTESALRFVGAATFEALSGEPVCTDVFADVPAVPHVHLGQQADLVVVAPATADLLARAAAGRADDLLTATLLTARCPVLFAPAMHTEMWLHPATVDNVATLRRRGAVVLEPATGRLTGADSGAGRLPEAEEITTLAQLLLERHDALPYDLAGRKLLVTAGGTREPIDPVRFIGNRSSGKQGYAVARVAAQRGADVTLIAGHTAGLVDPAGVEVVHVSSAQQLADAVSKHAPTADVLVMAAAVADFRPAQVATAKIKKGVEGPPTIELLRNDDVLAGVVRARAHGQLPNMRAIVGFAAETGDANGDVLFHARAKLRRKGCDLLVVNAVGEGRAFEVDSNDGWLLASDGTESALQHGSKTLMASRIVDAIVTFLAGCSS

ClpP1P2: 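Protease assay of ClpP1P2, read by the AMC dye that it sets free. Target: ClpP1P2, Mycobacterium tuberculosis (UniProt P9WPC5 and UniProt P9WPC3). Concentration: 50 µM. Direction is inferred from only a few compounds that gave an IC50; most scored high, so higher reads as stronger inhibition. Most other retested compounds had strongly negative values. About 69,000 compounds were tested under these conditions; 0.015% (about 10) showed 50% or more at least once.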
Toxoplasma: 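Assay of Toxoplasma gondii numbers, read through their beta-galactosidase reporter with a colour substrate. Concentration: 10 µM. Higher reads as fewer parasites (inferred from which compounds were picked for retests). About 67,000 compounds were tested under these conditions; 0.38% (about 260) showed 50% or more at least once.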
MtTrpRS: 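Tryptophan-tRNA ligase, Mycobacterium tuberculosis (UniProt P9WFT3). Enzyme assay of tryptophanyl-tRNA synthetase; the read-out is not stated. Compounds at 10 µM. Direction is not recorded; retested compounds ran higher, which suggests that high means inhibition. Size under these conditions: about 65,000 compounds, about 64 of them at 50% or above in at least one test.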
CoaBC: 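Coenzyme A biosynthesis protein CoaBC, Mycobacterium tuberculosis (UniProt P9WNZ1). Enzyme assay of CoaBC with a phosphate dye (Biomol Green) read at 650 nm. Concentration: 30 µM. Higher reads as stronger inhibition, judged from the few compounds that gave an IC50. Most strong results did not repeat in a second test. About 67,000 compounds were tested under these conditions; 0.06% (about 40) showed 50% or more at least once.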

Results are given as percent effect.
The record does not define 0% and 100%; most values in the screen are far below 50% and negative numbers occur (in some assays of this library far below -100).
Compounds were drawn at random from those tested, without regard to their results.

Cc1ccc(CCNC(=O)CC2COCCN2S(=O)(=O)N(C)C)s1 (configuration not stated) gave ClpP1P2: -4.34%; Toxoplasma: 12.03%; MtTrpRS: 0.122%; CoaBC: 3.23%.
CCn1cnnc1C1CCN(C(=O)c2ccc3cc[nH]c3c2)CC1 gave ClpP1P2: -0.4838%; Toxoplasma: 0.8547%; MtTrpRS: -4.343%; CoaBC: 4.453%.
O=C(NCc1cccnc1N1CCCC(O)C1)c1ccsc1 (configuration not stated) gave ClpP1P2: -11.97%; Toxoplasma: -7.876%; MtTrpRS: -2.175%; CoaBC: 2.405%.
Cn1ncc(NC(=O)Cn2ccc(-c3ccc(F)cc3)n2)n1 gave ClpP1P2: -14.37%; Toxoplasma: -2.065%; MtTrpRS: -0.6173%; CoaBC: 4.167%.
COc1ccc(CN2CCN(C(C)=O)CC3(CC(=O)N(C)C3)C2)cc1 (configuration not stated) gave ClpP1P2: 11.15%; MtTrpRS: -1.45%; CoaBC: 1.935%.
O=C(NCCc1c[nH]c2ccccc12)C1(n2cnnn2)CCCCC1 gave ClpP1P2: -15.18%; Toxoplasma: 15.72%; MtTrpRS: 18.2%; CoaBC: 2.278%.
Cc1nc(C)c(C(=O)N2Cc3ccccc3OCC2CN(C)C)o1.Cl.Cl (configuration not stated) gave Toxoplasma: -3.035%.
CCCN1CCC(c2nc3ccc(-c4cccc(OC)c4)cn3n2)CC1.O=C(O)C(F)(F)F gave Toxoplasma: 17.01%.
Cn1cnc2c1CCN(Cc1nc(-c3ccco3)no1)C2 gave ClpP1P2: 6.811%; Toxoplasma: 2.183%; MtTrpRS: 3.749%; CoaBC: 0.3241%.
CC(C)(CO)CNC(=O)c1ccnn1-c1ccc2ccccn12 gave ClpP1P2: 3.322%; Toxoplasma: -0.1618%; MtTrpRS: -0.7551%.
CCOCCN1CCN(CC(O)c2ccc(C)c(C)c2)CC1 (configuration not stated) gave ClpP1P2: -13.65%; Toxoplasma: 2.695%; MtTrpRS: 2.927%; CoaBC: 3.422%.
CCCn1nnnc1COc1cc(OC)ccc1C(=O)OC gave ClpP1P2: 2.035%; Toxoplasma: -12.92%; MtTrpRS: 1.633%; CoaBC: 5.98%.
O=C(N1CCOCC1)N1CCC2(CC1)CN(c1ccccn1)CCO2 gave ClpP1P2: 14.47%; Toxoplasma: -7.471%; MtTrpRS: 6.494%; CoaBC: 4.665%.
COc1cccc(CNC(C)C)c1OCc1ccc(C)cc1.Cl gave Toxoplasma: 0.3643%.
CCN(CC1CN(Cc2ccn(C(C)C)n2)CCO1)c1cccnn1 (configuration not stated) gave ClpP1P2: 2.557%; Toxoplasma: 6.977%; MtTrpRS: -1.521%; CoaBC: 6.612%.
O=C1C(N2CCN(c3ccccc3Cl)CC2)CCN1C1CCOCC1 (configuration not stated) gave ClpP1P2: -1.354%; Toxoplasma: 0%; MtTrpRS: -2.785%; CoaBC: -1.613%.
CS(=O)(=O)NCC1CCCN(C(=O)Nc2ccccc2F)C1 (configuration not stated) gave ClpP1P2: 7.256%; Toxoplasma: -11.73%; MtTrpRS: 3.239%; CoaBC: 12.44%.
O=C(Cc1c[nH]c2ncccc12)NCC(O)c1ccsc1 (configuration not stated) gave ClpP1P2: -1.566%; Toxoplasma: 19%; MtTrpRS: 2.365%; CoaBC: 6.488%.
Cc1cc(C)n(CC(C)CNC(=O)NCc2c(C)cc(C)[nH]c2=O)n1 (configuration not stated) gave ClpP1P2: 4.837%; Toxoplasma: -1.705%; MtTrpRS: 1.519%; CoaBC: 1.167%.
O=C(COc1coc(CN2CCCC2)cc1=O)NCc1ccccc1Cl gave ClpP1P2: 6.761%; Toxoplasma: -0.7173%; MtTrpRS: -4.824%; CoaBC: 1.211%.

2 of the entries, repeated:

{"compound": "CC(C)(CO)CNC(=O)c1ccnn1-c1ccc2ccccn12", "ClpP1P2": 3.322, "Toxoplasma": -0.1618, "MtTrpRS": -0.7551}
{"compound": "Cc1ccc(CCNC(=O)CC2COCCN2S(=O)(=O)N(C)C)s1", "stereo": "configuration not stated", "ClpP1P2": -4.34, "Toxoplasma": 12.03, "MtTrpRS": 0.122, "CoaBC": 3.23}

Source: ChEMBL document CHEMBL3988442, “University of Dundee, Small-Polar-MMV Screening Library” (2021).